Experimental data: PubChem BioAssay AID1259254 (NCATS, 2017)

Purpose: 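Genome-wide screen for genes that prevent DNA re-replication in cancer cells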 (primary screen)
Cell system: human HCT116 colorectal cancer cells
Knock-down reagent: single siRNA against human genes
Timing: 3 days
Detection: 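Nuclei stained with Hoechst and imaged; cell-cycle phase assigned by DNA content; G2 share scaled per plate, non-targeting siRNA 0%, GMNN siRNA 100%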
Scale: G2 robust z-score and G2 cells, % of GMNN control: higher = more G2 cells, more excess DNA replication; raw share of cells in G2: higher = larger share of cells with G2 DNA content
Call rule: 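Active siRNAs have a G2 robust z of 5 or more median absolute deviations over the median, which in these data means about 38% or higher of GMNN control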
Shown is an unselected part of about 59,000 reagents tested. About 1,550 of them (2.6%) count as active. 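G2 share is only a proxy for re-replication; each gene was hit by three separate siRNAs, and active genes were retested.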 Raw values are not corrected between plates. Entries without a mark were called inactive. No sequences are given here. Not given: the amount of reagent.

gene | PubChem SID | G2 robust z-score | G2 cells, % of GMNN control | raw share of cells in G2 (%)
HINFP | SID160737400 | 0.195 | 4.34 | 4.32
HINFP | SID160737401 | 7.76 (active) | 57.6 | 31.9
HINFP | SID160737402 | 0.247 | 4.71 | 5.11
TMX2 | SID160731346 | 0.255 | 4.76 | 5.63
TMX2 | SID160739985 | 0.785 | 8.49 | 9.8
TMX2 | SID160739986 | 0.0437 | 3.27 | 5.45
FGF14 | SID160732722 | -0.832 | -2.89 | 2.39
FGF14 | SID160765336 | 0.158 | 4.08 | 7.22
FGF14 | SID160765345 | -1.21 | -5.58 | 2.05
NIT1 | SID160778078 | -0.643 | -1.56 | 4.76
NIT1 | SID160778079 | 2.03 | 17.2 | 8.88
NIT1 | SID160778080 | 1.15 | 11.1 | 9.85
TAF1A | SID160721268 | 1.55 | 13.9 | 11.3
TAF1A | SID160721269 | 0.676 | 7.72 | 6.96
TAF1A | SID160721270 | -0.197 | 1.58 | 3.91
DMXL1 | SID160753432 | 0.207 | 4.43 | 7.38
DMXL1 | SID160753443 | 0.191 | 4.31 | 5.67
DMXL1 | SID160753454 | 1.22 | 11.5 | 8.04
GBP6 | SID160760040 | 4.4 | 33.9 | 18.9
GBP6 | SID160760041 | -1.62 | -8.4 | 1.95
GBP6 | SID160760042 | 2.91 | 23.4 | 13.3
SLC22A31 | SID160724852 | 0.951 | 9.66 | 7.07
SLC22A31 | SID160724853 | -0.788 | -2.58 | 2.12
SLC22A31 | SID160724854 | -0.0887 | 2.34 | 3.89
CLASP2 | SID160730828 | -0.777 | -2.5 | 3.32
CLASP2 | SID160735502 | 3.65 | 28.6 | 17.9
CLASP2 | SID160735503 | 1.19 | 11.3 | 7.74
TEKT3 | SID160747810 | 0.769 | 8.38 | 9.12
TEKT3 | SID160747811 | 1.82 | 15.8 | 9.94
TEKT3 | SID160747812 | -0.0258 | 2.79 | 5.24
OBSL1 | SID160736112 | -0.11 | 2.19 | 5.24
OBSL1 | SID160736113 | -0.608 | -1.31 | 3.37
OBSL1 | SID160736114 | -0.746 | -2.28 | 2.5
TMEM179B | SID160733154 | 3.94 | 30.7 | 16.5
TMEM179B | SID160765264 | 0.62 | 7.33 | 6.5
TMEM179B | SID160765265 | 4.86 | 37.2 | 19.5
SPAG6 | SID160722537 | -0.25 | 1.21 | 5.24
SPAG6 | SID160722538 | 4.42 | 34 | 18.1
SPAG6 | SID160722539 | 0.83 | 8.81 | 6.21
IL7R | SID160775734 | -0.776 | -2.49 | 4.14
IL7R | SID160775735 | 0.00857 | 3.03 | 6.84
IL7R | SID160775736 | -0.149 | 1.92 | 4.91
TMEM87A | SID160737347 | 1.38 | 12.6 | 9.17
TMEM87A | SID160737348 | 0.753 | 8.27 | 7.52
TMEM87A | SID160737349 | 3.77 | 29.5 | 13.6
BEST3 | SID160758158 | -0.666 | -1.72 | 4.66
BEST3 | SID160758159 | 1.85 | 16 | 10.2
BEST3 | SID160758160 | 0.346 | 5.4 | 6.48

In a second layout: results already given
| gene | PubChem SID | G2 robust z-score | G2 cells, % of GMNN control | raw share of cells in G2 (%) |
| --- | --- | --- | --- | --- |
| TAF1A | SID160721269 | 0.676 | 7.72 | 6.96 |
| TAF1A | SID160721270 | -0.197 | 1.58 | 3.91 |
| DMXL1 | SID160753432 | 0.207 | 4.43 | 7.38 |
| DMXL1 | SID160753443 | 0.191 | 4.31 | 5.67 |
| DMXL1 | SID160753454 | 1.22 | 11.5 | 8.04 |
